The other results are listed elsewhere or left out.
Compound: CC1Cc2ccccc2N1C(=O)C1CCCN(C1)C(=O)CCl (mixture of isomers) [TRIM25 ligand 11 (diastereomer mixture)]
Experiment: probe-labelled cysteine peptide fold change vs DMSO (competition) (log2 fold change); higher = less target engagement (more negative = stronger competition)
Conditions: 50 µM; THP-1; incubation time: 4 h
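Also: competitive chemoproteomic profiling in live THP-1 cells with an iodoacetamide desthiobiotin (IA-DTB) probe, comparing probe-labelled peptide intensities in compound-treated cells against DMSO-treated controls.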

Amino acid sequences for entries named in this document (tags omitted). A change or cut given only in a name is not applied to a line headed by its entry.
UniProt P25788: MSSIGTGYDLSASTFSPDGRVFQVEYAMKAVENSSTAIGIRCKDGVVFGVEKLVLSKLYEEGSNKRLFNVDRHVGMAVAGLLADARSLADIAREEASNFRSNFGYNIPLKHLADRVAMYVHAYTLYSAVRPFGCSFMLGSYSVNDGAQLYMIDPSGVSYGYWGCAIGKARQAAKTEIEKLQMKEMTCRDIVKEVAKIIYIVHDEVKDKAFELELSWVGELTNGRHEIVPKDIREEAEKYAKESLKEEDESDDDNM
UniProt P08575: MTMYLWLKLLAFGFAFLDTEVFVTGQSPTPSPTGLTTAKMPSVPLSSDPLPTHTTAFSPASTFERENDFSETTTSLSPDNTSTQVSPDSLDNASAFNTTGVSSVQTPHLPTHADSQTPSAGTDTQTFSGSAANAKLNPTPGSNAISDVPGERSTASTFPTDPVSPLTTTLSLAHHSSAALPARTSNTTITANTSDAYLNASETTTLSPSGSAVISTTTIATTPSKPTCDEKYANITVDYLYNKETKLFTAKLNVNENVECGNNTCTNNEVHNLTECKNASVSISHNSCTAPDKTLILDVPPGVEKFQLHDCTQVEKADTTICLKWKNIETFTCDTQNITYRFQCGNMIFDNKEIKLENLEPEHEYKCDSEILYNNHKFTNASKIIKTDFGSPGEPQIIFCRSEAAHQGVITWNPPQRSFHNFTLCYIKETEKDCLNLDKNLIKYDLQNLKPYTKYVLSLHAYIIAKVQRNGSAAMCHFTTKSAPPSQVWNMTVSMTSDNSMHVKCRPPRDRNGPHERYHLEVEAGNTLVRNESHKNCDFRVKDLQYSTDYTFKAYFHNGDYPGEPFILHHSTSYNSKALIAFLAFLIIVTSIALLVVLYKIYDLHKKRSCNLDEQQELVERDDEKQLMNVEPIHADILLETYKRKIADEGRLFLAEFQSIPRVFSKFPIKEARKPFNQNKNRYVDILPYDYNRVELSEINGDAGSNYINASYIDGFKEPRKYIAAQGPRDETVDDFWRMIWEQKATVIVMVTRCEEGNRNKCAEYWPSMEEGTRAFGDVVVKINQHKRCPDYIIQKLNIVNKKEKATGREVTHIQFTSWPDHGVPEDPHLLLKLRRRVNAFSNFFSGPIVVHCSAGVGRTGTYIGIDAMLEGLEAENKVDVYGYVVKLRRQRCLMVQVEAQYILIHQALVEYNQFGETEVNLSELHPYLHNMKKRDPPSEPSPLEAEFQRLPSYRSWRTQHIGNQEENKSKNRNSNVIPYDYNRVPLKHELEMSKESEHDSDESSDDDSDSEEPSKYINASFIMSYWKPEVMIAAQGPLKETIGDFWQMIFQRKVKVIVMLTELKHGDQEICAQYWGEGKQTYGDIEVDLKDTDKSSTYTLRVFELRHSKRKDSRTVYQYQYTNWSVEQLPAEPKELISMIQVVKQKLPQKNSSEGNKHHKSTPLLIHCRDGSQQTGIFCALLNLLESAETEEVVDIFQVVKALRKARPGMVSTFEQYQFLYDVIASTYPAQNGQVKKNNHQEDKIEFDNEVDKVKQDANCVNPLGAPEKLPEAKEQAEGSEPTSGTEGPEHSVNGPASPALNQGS
UniProt P35236: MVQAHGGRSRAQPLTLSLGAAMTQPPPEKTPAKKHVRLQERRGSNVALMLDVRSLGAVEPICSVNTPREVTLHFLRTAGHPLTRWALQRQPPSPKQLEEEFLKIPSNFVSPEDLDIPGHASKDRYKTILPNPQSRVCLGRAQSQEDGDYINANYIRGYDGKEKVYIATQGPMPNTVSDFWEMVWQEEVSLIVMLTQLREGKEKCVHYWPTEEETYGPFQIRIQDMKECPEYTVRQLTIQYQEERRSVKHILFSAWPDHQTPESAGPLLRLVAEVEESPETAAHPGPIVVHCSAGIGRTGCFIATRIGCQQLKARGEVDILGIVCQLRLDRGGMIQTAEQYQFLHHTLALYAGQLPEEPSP
UniProt P10586, whole entry, looked up: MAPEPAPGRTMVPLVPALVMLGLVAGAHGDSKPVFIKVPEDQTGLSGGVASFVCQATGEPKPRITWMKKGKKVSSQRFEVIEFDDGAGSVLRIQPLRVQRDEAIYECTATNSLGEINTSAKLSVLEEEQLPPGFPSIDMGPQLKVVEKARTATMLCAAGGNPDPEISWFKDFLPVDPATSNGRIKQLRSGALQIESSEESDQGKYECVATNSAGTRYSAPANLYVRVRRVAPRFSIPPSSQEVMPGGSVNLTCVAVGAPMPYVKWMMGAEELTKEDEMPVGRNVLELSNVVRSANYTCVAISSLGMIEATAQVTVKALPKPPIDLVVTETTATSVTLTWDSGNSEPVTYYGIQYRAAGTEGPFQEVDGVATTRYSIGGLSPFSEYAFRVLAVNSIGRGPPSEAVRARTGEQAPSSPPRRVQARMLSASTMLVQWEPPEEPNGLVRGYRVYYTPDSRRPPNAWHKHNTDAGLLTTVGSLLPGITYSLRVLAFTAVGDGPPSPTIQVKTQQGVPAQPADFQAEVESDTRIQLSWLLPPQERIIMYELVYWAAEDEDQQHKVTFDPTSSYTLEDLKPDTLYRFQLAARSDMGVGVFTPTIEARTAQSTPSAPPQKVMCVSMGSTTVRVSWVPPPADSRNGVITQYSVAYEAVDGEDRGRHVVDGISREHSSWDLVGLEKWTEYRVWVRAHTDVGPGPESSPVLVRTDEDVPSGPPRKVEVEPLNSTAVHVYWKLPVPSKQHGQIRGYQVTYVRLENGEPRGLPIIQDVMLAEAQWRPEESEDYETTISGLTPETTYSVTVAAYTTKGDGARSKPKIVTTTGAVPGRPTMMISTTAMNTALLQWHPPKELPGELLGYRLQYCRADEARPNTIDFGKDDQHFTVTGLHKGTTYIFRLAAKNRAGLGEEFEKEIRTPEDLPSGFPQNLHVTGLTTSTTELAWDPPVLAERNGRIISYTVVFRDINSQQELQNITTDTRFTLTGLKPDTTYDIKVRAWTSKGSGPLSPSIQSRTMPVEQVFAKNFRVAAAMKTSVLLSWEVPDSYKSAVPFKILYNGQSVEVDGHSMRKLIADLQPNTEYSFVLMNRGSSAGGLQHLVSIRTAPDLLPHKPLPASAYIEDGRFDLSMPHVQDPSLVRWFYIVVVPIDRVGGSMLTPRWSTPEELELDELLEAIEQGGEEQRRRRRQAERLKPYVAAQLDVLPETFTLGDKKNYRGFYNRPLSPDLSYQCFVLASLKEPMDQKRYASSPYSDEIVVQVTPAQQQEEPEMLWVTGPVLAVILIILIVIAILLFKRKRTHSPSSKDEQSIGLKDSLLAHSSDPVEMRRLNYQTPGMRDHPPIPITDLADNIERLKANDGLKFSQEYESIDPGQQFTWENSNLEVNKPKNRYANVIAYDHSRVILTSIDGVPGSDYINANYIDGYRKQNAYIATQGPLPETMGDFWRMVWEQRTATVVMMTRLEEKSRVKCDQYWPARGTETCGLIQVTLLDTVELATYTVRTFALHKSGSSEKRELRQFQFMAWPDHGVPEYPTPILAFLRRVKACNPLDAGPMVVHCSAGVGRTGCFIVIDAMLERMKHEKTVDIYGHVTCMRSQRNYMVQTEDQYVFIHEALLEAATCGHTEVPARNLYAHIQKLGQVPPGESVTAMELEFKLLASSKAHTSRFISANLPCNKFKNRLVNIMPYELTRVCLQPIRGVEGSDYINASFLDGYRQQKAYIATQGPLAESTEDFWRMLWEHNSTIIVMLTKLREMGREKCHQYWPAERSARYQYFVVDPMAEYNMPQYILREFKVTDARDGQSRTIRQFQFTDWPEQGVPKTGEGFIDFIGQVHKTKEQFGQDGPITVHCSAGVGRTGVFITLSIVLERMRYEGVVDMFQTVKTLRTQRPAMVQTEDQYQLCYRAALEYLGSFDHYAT
UniProt Q15185: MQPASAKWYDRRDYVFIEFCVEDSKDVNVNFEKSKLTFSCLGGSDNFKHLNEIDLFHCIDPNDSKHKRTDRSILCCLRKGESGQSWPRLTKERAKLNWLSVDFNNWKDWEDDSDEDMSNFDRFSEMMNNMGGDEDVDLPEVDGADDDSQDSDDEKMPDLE
UniProt Q14997: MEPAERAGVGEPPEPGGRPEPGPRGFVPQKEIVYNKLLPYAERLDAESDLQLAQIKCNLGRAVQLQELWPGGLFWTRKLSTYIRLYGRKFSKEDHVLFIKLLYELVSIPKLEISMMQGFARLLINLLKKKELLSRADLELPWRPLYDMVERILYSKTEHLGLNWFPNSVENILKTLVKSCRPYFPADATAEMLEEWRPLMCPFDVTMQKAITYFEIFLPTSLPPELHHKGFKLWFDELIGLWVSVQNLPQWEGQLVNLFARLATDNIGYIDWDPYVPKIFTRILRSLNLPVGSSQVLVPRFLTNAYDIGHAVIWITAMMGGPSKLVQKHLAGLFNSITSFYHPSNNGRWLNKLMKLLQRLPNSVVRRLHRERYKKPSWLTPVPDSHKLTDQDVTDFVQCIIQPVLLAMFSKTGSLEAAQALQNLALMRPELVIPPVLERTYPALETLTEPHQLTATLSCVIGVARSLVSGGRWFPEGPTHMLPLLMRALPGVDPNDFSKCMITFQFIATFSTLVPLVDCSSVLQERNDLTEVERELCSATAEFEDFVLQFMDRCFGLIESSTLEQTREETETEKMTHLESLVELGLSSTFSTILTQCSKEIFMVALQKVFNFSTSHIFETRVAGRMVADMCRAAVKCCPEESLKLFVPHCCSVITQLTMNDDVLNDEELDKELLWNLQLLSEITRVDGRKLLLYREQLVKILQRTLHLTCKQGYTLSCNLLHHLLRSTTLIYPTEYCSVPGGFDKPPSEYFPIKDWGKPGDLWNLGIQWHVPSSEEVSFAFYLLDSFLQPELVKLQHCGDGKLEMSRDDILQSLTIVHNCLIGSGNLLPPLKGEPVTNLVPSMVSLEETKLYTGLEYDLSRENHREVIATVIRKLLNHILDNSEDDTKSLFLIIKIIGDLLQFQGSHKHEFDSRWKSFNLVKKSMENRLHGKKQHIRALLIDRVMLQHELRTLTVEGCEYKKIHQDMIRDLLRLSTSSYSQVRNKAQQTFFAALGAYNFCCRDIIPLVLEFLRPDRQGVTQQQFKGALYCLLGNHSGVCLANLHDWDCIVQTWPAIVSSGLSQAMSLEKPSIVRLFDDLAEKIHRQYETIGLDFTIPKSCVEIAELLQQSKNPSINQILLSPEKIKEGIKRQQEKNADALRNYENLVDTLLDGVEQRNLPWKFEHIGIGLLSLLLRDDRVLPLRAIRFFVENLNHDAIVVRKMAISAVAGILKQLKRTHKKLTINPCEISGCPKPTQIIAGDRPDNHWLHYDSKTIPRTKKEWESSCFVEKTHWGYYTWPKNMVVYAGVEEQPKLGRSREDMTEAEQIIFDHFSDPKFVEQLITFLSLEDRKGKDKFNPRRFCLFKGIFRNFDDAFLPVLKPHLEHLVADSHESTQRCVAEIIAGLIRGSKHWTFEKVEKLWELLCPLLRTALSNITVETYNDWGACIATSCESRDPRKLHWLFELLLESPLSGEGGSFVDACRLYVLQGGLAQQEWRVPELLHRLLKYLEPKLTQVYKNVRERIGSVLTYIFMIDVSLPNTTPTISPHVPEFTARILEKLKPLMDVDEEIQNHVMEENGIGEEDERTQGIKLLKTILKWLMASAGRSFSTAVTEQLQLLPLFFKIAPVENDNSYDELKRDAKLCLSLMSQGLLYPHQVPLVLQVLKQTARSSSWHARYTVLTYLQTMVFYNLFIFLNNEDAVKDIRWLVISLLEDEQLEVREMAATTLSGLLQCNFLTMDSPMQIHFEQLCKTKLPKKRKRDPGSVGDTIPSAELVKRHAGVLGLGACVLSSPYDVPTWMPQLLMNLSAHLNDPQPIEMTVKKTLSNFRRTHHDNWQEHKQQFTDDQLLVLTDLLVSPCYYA
UniProt O75475: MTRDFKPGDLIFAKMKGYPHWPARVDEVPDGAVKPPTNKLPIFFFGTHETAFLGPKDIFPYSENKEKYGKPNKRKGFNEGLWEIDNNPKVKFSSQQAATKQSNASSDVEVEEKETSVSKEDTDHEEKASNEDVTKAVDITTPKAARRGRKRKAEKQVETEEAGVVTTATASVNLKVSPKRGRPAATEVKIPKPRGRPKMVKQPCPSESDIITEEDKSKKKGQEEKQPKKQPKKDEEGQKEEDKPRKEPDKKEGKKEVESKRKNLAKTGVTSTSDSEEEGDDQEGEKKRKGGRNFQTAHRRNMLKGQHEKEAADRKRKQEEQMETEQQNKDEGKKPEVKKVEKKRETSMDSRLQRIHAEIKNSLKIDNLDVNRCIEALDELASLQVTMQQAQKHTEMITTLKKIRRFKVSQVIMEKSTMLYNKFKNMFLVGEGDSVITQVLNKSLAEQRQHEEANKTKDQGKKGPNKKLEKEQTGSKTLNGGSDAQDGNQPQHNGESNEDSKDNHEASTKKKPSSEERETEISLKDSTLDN

Row | Target | probe-labelled cysteine peptide fold change
1 | PSMA3_P25788_42_CKDGVVFGVEK (UniProt P25788) | -0.223
2 | PSMD1_Q99460_378_NSVCHTATVIANSFMHCGTTSDQFLRDNLEWLAR (UniProt Q99460) | -0.0957
3 | PTCD2_Q8WV60_355_FDEIYGTLHITGQVTTDSLDAVLCHTPR (UniProt Q8WV60) | -0.078
4 | PTPRC_P08575_1261_QDANCVNPLGAPEK (UniProt P08575) | 0.00634
5 | PTPN7_P35236_204_CVHYWPTEEETYGPFQIR (UniProt P35236) | -0.0381
6 | PSMD6_Q15008_112_AEYLCR (UniProt Q15008) | -0.0272
7 | PTPRF_P10586_615_VMCVSMGSTTVR (UniProt P10586) | 0.0964
8 | PTPN7_P35236_228_ECPEYTVR (UniProt P35236) | 0.0226
9 | PTK2B_Q14289_744_LQFQVPEGLCASSPTLTSPMEYPSPVNSLHTPPLHR (UniProt Q14289) | -0.331
10 | PSMD2_Q13200_459_NECDPALALLSDYVLHNSNTMR (UniProt Q13200) | -0.451
11 | PSMG1_O95456_235_IPAILYLCYTDVMK (UniProt O95456) | 0.371
12 | PTGES3_Q15185_75_SILCCLR (UniProt Q15185) | 0.0446
13 | PTDSS1_P48651_419_TYSECEDGTYSPEISWHHR (UniProt P48651) | -0.0714
14 | PSME4_Q14997_798_LQHCGDGK (UniProt Q14997) | 0.154
15 | PSIP1_O75475_204_QPCPSESDIITEEDK (UniProt O75475) | -0.219
16 | PTER_Q96BW5_289_LLVEEGCEDR (UniProt Q96BW5) | -0.0182
17 | PTPRF_P10586_207_YECVATNSAGTR (UniProt P10586) | 0.251
18 | PSME1_Q06323_22_VDVFREDLCTK (UniProt Q06323) | -0.129
19 | PSMD14_O00487_120_QTGRPEMVVGWYHSHPGFGCWLSGVDINTQQSFEALSER (UniProt O00487) | -0.0756
20 | PTPN23_Q9H3S7_1466_HGVPPPCKPLASASISQK (UniProt Q9H3S7) | -0.419
21 | PTDSS1_P48651_347_QYYAYLTDTQCKR (UniProt P48651) | 0.128
22 | PTPRC_P08575_610_SCNLDEQQELVERDDEK (UniProt P08575) | -0.0457

Shown with each value named: entries from further up.
PTDSS1_P48651_419_TYSECEDGTYSPEISWHHR (UniProt P48651)
  probe-labelled cysteine peptide fold change: -0.0714
PSME4_Q14997_798_LQHCGDGK (UniProt Q14997)
  probe-labelled cysteine peptide fold change: 0.154

— the supplement of paper PMC12067093, “Discovery and optimisation of a covalent ligand for TRIM25 and its application to targeted protein ubiquitination” (Chemical Science, 2025)
